# PubChem BioAssay AID686943 – Drosophila RNAi Screening Center | 2013
# Test: 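Fly genes whose loss alters ERK activation after insulin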 (primary screen)
# System: Drosophila S2R+ haemocyte-like cells expressing YFP-tagged ERK (Rolled)
# Reagents: long dsRNA against Drosophila genes
# Challenge: insulin stimulation versus unstimulated cells; dose and duration not given
# Measured: 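Antibody staining for doubly phosphorylated ERK divided by ERK-YFP signal, as plate z-scores, in insulin-treated and untreated cells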
# Reading the numbers: replicate 1, z-score of dpERK with insulin and replicate 2, z-score of dpERK with insulin: higher = more active ERK per ERK-YFP after insulin; replicate 1, z-score of dpERK under basal conditions: higher = more basal active ERK per ERK-YFP
# In all, the deposit lists about 23,000 reagents; this is an unselected part of those with a known target gene and a result. 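Extra replicates exist only for a retested subset of genes; insulin dose and duration not given; both raised and lowered dpERK matter.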 Names joined by + are all predicted targets of the reagent. Not all columns of the deposit are shown. The record does not give: the amount of reagent, the time to read-out.
The opening 4 entries, to show the layout:
target gene,dsRNA,"replicate 1, z-score of dpERK with insulin","replicate 2, z-score of dpERK with insulin","replicate 1, z-score of dpERK under basal conditions"
CG3277,DRSC00588,0.06,-0.7,-0.13
unc-104,DRSC07710,0.3,0.43,-0.46
CG14073,DRSC10078,0.79,1.41,-1.66
Mal-A3,DRSC07462,0.42,-0.09,-0.29

Results, from the first entry:
target gene,dsRNA,"replicate 1, z-score of dpERK with insulin","replicate 2, z-score of dpERK with insulin","replicate 1, z-score of dpERK under basal conditions"
CG3277,DRSC00588,0.06,-0.7,-0.13
unc-104,DRSC07710,0.3,0.43,-0.46
CG14073,DRSC10078,0.79,1.41,-1.66
Mal-A3,DRSC07462,0.42,-0.09,-0.29
CG15136,DRSC02436,0.09,0.46,-0.16
Sps2,DRSC03441,-0.57,0.29,1.5
Hacd2,DRSC03181,0.23,0.72,-0.16
Hr96,DRSC16707,-0.02,-0.36,-0.18
CG41099,DRSC21049,-0.74,-0.23,-0.46
CG41099,DRSC21051,0.14,-0.07,-1.02
shv,DRSC00640,1.14,-0.27,1.66
shv,DRSC22122,-0.38,-1.83,-0.62
CG31157,DRSC21832,-0.54,-0.52,1.65
eca,DRSC22290,-0.9,-1.71,1.51
Serinc,DRSC11296,-0.03,-0.86,0.54
ACXA,DRSC00844,0.36,0.03,-0.24
atilla,DRSC02971,0.15,0.29,0.49
CG14013,DRSC02344,1.64,0.69,-0.09
Pcd,DRSC16785,1.88,3.29,-0.09
AANATL4,DRSC06774,0.34,1.03,0.13
CG1701,DRSC06641,0.18,0.38,0.43
Rpt3,DRSC20283,-3.8,-4.12,-3.84
Nil,DRSC15953,0.6,0.1,2.21
CG15439,DRSC00453,-0.18,-0.39,1.31
CG34178 + CG34177,DRSC00351,0,-0.07,-0.16
Jhbp4,DRSC14222,-0.34,0.36,1.05
elgi,DRSC10242,-0.02,0.34,0.03
CG10543,DRSC04081,-2.27,-2.13,-0.85
Orcokinin,DRSC04202,-0.23,0.57,0.85
CG13563,DRSC22153,0.13,0.66,-0.44
Tehao,DRSC03449,1.13,0.49,0.08
CG8043,DRSC16368,0.57,-0.22,-0.85
CG10764,DRSC06000,0.14,-0.12,-0.5
CG31698,DRSC22226,-0.47,-0.5,0.29
CG4676,DRSC06879,0.19,1.36,1.56
CG31683 + CG18858,DRSC02703,0.32,0.8,0.27
cv-2,DRSC03861,1.51,0.06,0.76
cv-2,DRSC04261,0.13,0.75,0.5
LManVI,DRSC03224,1.36,1.75,1.84
CG30431,DRSC04902,0.02,0.65,-0.02
CG30431,DRSC04904,0.34,-0.38,0.94
Cpr76Ba,DRSC11060,-0.68,-0.31,-0.48
Ser7,DRSC18201,-0.65,-0.43,0.29
bves,DRSC20520,-0.81,-0.2,0.34
bves,DRSC20554,0.25,-0.08,1.75
bves,DRSC20555,0.93,0.29,0.75
Shrm,DRSC06437,-1.7,-0.1,-0.55
Shrm,DRSC06438,-0.09,-0.64,0.15
Shrm,DRSC07221,0.39,0.07,0.56
CG17544,DRSC02624,0.6,0.16,-0.85
CG15818,DRSC02505,0.12,-0.42,-0.76
CG4198,DRSC18354,0.62,0.65,1.24
SkpB,DRSC07683,0.44,1.86,1.56
Osi2,DRSC12174,0.35,0.59,0.36
CG14071,DRSC02374,-0.14,0.12,-0.08
Cpr50Cb,DRSC06975,0.94,0.65,-0.15
hng2,DRSC16412,0.39,0.07,1.18
